In all, about 59,000 compounds went through this assay and about 6,500 (11%) were called active. The shares of active, inactive and inconclusive entries below differ from those in the screen. Cut-off read from the data, not from the text of the source: active = max dye-equivalent concentration above about 10 nM; inconclusive = mostly about 1.1 nM to 9.6 nM; inactive = weaker than that.
Test: qHTS Assay for Spectroscopic Profiling in A350 Spectral Region
Conditions: Compound autofluorescence, 340/450 nm, Alexa 350 dye-equivalents; stronger effect = higher value
In the case of `Cc1cc(C(=O)Nc2cccc3ncccc23)no1`, the max dye-equivalent concentration is reported as inconclusive: 2.7 nM.
In the case of `CN1CCCC(C(=O)C(C#N)c2ccccc2)C1` (stereo unspecified), the max dye-equivalent concentration is reported as inconclusive: 4.3 nM.
With `CCOc1nc(NCc2ccco2)nc(Nc2ccc(OC)cc2)n1` the max dye-equivalent concentration was inconclusive: 1.3 nM.
In the case of `O=C(CSc1ccc2nnc(-c3ccc(F)cc3)n2n1)NCc1ccco1`, the max dye-equivalent concentration is reported as active: 46 nM.
For `Cc1ccc(-c2nnn(CC(=O)N3CCN(c4nc5ccccc5s4)CC3)n2)cc1`, the max dye-equivalent concentration was inconclusive: 6.3 nM.
For `Cc1cc2cc(CN(CCN3CCOCC3)C(=O)Nc3ccccc3F)c(=O)[nH]c2cc1C`, the max dye-equivalent concentration was inconclusive: 1.4 nM.
In the case of `COc1cc2c(cc1OC)-c1cc(NC3CCCCC3)nc(=O)n1CC2`, the max dye-equivalent concentration is reported as active: 56 nM.
For `Cc1ccc(C(c2nnnn2Cc2cccs2)N2CCN(Cc3ccc4c(c3)OCO4)CC2)cc1` (stereo unspecified), the max dye-equivalent concentration was inconclusive: 4.1 nM.
For `Cc1ccc2cc3cc(C(=O)NCc4ccco4)oc3nc2c1`, the max dye-equivalent concentration was inconclusive: 9.6 nM.
In the case of `O=C(CCC(=O)N(CC(=O)NC1CCCC1)C1CCCC1)Nc1ccccn1`, the max dye-equivalent concentration is reported as inconclusive: 1.5 nM.
With `c1csc(CN2CCN(Cc3cccs3)C2c2cccs2)c1` the max dye-equivalent concentration was “inactive”.
With `O=C(O)C1(c2cccc(Cl)c2)CCC1` the max dye-equivalent concentration was “inactive”.
For `Cc1cc2ccccc2c(=O)n1CC(=O)NCC(=O)N1CCN(c2ccccc2F)CC1`, the max dye-equivalent concentration was “inactive”.
With `Cc1ccc(NC(=O)CN(C)C(=O)CCCN2C(=O)c3ccccc3C2=O)cc1` the max dye-equivalent concentration was “inactive”.
In the case of `COc1ccc2[nH]c(=O)c(CN(Cc3cccs3)S(=O)(=O)c3cccc4nsnc34)cc2c1`, the max dye-equivalent concentration is reported as inconclusive: 2.1 nM.
For `O=C(N1CCOCC1)N1CCC(n2nnc3cc(F)ccc32)CC1`, the max dye-equivalent concentration was “inactive”.
With `CCOC(=O)C1CCCN(c2cc(C)nc3cc(-c4ccc(F)cc4)nn23)C1` (stereo unspecified) the max dye-equivalent concentration was inconclusive: 3.3 nM.
In the case of `CCOc1ccc(C(=O)Nc2ccc(NC(=O)c3ccco3)c(Cl)c2)cc1Br`, the max dye-equivalent concentration is reported as active: 10 nM.
For `Cc1ccc(C)c(NC(=O)CSc2nnc(CCCCCNC(=O)OC(C)(C)C)o2)c1`, the max dye-equivalent concentration was “inactive”.
In the case of `c1ccc2c[n+](Cc3ccnc4ccccc34)ccc2c1`, the max dye-equivalent concentration is reported as “inactive”.
With `CCCCn1nnnc1NCc1cccs1` the max dye-equivalent concentration was inconclusive: 3.1 nM.
In the case of `COc1cc(C2N=C(c3ccccc3)NO2)cc(Br)c1O` (stereo unspecified), the max dye-equivalent concentration is reported as active: 42 nM.
For `CC(C)c1nc2sc3c(SCC(=O)NCc4ccco4)ncnc3c2c2c1CCC2`, the max dye-equivalent concentration was inconclusive: 4 nM.
With `FC(F)(F)c1cc(-c2ccco2)nc(-n2nc(C(F)(F)F)cc2C2CC2)n1` the max dye-equivalent concentration was inconclusive: 1.8 nM.
With `CSc1nsc(SCCN2C(=O)c3ccccc3C2=O)n1` the max dye-equivalent concentration was “inactive”.
For `Cc1c(NC(=O)CN2CC(C)OC(C)C2)c(=O)n(-c2ccccc2)n1C` (stereo unspecified), the max dye-equivalent concentration was inconclusive: 1.1 nM.
